Source: PubChem BioAssay AID743121 (NCATS, 2013)
In all, the deposit lists about 26,000 reagents; shown is an unselected part. In the full data, 167 (0.63%) are marked active. 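Calls are per gene from RSA p-values that are not deposited; an individual active-marked siRNA can sensitise only weakly.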 Reagents against one gene are numbered here. Further read-outs or replicates are left out here.

- Test: 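Knock-downs that sensitise breast cancer cells to camptothecin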 (primary screen)
- System: MDA-MB-231 cells, a human breast cancer line
- Knock-down reagent: single siRNA against human genes, 20 nM siRNA (0.8 pmol per well)
- Timing: 120 h (drug added 48 h after transfection, read 72 h later)
- Challenge: camptothecin 20 nM (about EC30) for 72 h; vehicle 0.1% DMSO in parallel plates
- Detection: 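CellTiter-Glo ATP signal, scaled to control siRNA as percent viability; sensitisation given as log2 of untreated divided by camptothecin-treated viability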
- Scale: log2 vehicle/camptothecin viability: higher = stronger sensitisation to camptothecin
- Call rule: 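Active genes have an RSA gene-level p-value below 0.001, computed from the ratios of their separate siRNAs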

With knock-down of ENG #1 the results were log2 vehicle/camptothecin viability -1.2; inactive.
Depletion of ENG #2 came out at: log2 vehicle/camptothecin viability -0.28; inactive.
Depletion of ENG #3 came out at: log2 vehicle/camptothecin viability -0.335; inactive.
Silencing of ENG #4 resulted in: log2 vehicle/camptothecin viability 0.165; inactive.
TFEC #1 scored log2 vehicle/camptothecin viability -0.27; inactive.
With knock-down of TFEC #2 the results were log2 vehicle/camptothecin viability 0.249; inactive.
Knock-down of TFEC #3 resulted in: log2 vehicle/camptothecin viability -0.298; inactive.

A stretch taken from the entries so far:
ENG #2 — log2 vehicle/camptothecin viability: -0.28; Outcome: inactive
ENG #3 — log2 vehicle/camptothecin viability: -0.335; Outcome: inactive

Additional reagents:
Silencing of ADGRE1 #1 resulted in: log2 vehicle/camptothecin viability -0.218; inactive.
With knock-down of ADGRE1 #2 the results were log2 vehicle/camptothecin viability -0.419; inactive.
ADGRE1 #3 scored log2 vehicle/camptothecin viability -0.481; inactive.
For ADGRE1 #4, the values are log2 vehicle/camptothecin viability -0.38; inactive.
KCNJ12 #1 gave log2 vehicle/camptothecin viability -0.593; inactive.
KCNJ12 #2 scored log2 vehicle/camptothecin viability -0.531; inactive.
KCNJ12 #3 scored log2 vehicle/camptothecin viability -0.144; inactive.
After knock-down of KCNJ12 #4 the results were log2 vehicle/camptothecin viability 0.176; inactive.
